Measurements as given in the supplement of paper PMC4604168 (melanoma cell lines).
This is one part of the list. Single values are uncertain, as repeats are few or missing.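 Imaging used 1,536-well plates; nuclei positive for cleaved PARP by antibody were divided by total DNA-stained nuclei to yield the apoptosis fraction. Doses for screening kept most cells viable, and cell lines differ markedly in resting and induced cleaved-PARP levels.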

Key:
Experiment in all cases: cleaved PARP positive nuclei fraction relative to DMSO control; melanoma cells; higher = more apoptosis
Conditions in all cases: library dose: low library concentration; 72 h
501Mel = tested on: 501Mel
A101D = tested on: A101D
A2058 = tested on: A2058
A375 = tested on: A375
C32 = tested on: C32
CBRC008 = tested on: CBRC008 (line from a melanoma biopsy)
CBRC014 = tested on: CBRC014 (line from a melanoma biopsy)
CBRC016 = tested on: CBRC016 (line from a melanoma biopsy)
CBRC017 = tested on: CBRC017 (line from a melanoma biopsy)

Row | Compound | cleaved PARP positive nuclei fraction (501Mel) | cleaved PARP positive nuclei fraction (A101D) | cleaved PARP positive nuclei fraction (A2058) | cleaved PARP positive nuclei fraction (A375) | cleaved PARP positive nuclei fraction (C32) | cleaved PARP positive nuclei fraction (CBRC008) | cleaved PARP positive nuclei fraction (CBRC014) | cleaved PARP positive nuclei fraction (CBRC016) | cleaved PARP positive nuclei fraction (CBRC017)
1 | CCCCCCCCc1ccc(CCC(N)(CO)CO)cc1 [fingolimod] + CC(C)C[C@H](NC(=O)[C@H](Cc1ccccc1)NC(=O)c1cnccn1)B(O)O [Bortezomib] (first compound 2 µM, partner dose 0.001 µM) | 1160% | 178% | 62.6% | 388% | 82.2% | 159% | 195% | 96.2% | 230%
2 | NC(=O)c1ccc(N(C(N)=O)c2c(F)cccc2F)nc1-c1ccc(F)cc1F + Cn1c(=O)n(-c2ccc(C(C)(C)C#N)cc2)c2c3cc(-c4cnc5ccccc5c4)ccc3ncc21 [NVP-BEZ235] (first compound 0.4 µM, partner dose 0.004 µM) | 95% | 46.1% | 146% | 104% | 156% | 19% | 95.8% | 179% | 250%
3 | CC1(C)CCC(c2ccc(Cl)cc2)=C(CN2CCN(c3ccc(C(=O)NS(=O)(=O)c4ccc(N[C@H](CCN5CCOCC5)CSc5ccccc5)c(S(=O)(=O)C(F)(F)F)c4)cc3)CC2)C1 + COCC[n+]1c2c(n(Cc3cnccn3)c1C)C(=O)c1ccccc1C2=O [YM155] (first compound 0.4 µM, partner dose 0.0004 µM) | 155% | 103% | 90.2% | 506% | 131% | 736% | 467% | 735% | 691%
4 | CC1(C)CCC(c2ccc(Cl)cc2)=C(CN2CCN(c3ccc(C(=O)NS(=O)(=O)c4ccc(N[C@H](CCN5CCOCC5)CSc5ccccc5)c(S(=O)(=O)C(F)(F)F)c4)cc3)CC2)C1 + COc1ccc(Cl)c(Nc2nc3ccccc3nc2NS(=O)(=O)c2cccc(NC(=O)C(C)(C)N)c2)c1 [XL147] (first compound 0.4 µM, partner dose 0.8 µM) | 100% | 84.8% | 128% | 608% | 364% | 512% | 509% | 1250% | 325%
5 | CN(c1ncccc1CNc1nc(Nc2ccc3c(c2)CC(=O)N3)ncc1C(F)(F)F)S(C)(=O)=O + Nc1cccc2c1CN(C1CCC(=O)NC1=O)C2=O [lenalidomide] (first compound 0.08 µM, partner dose 1 µM) | 180% | 50.2% | 177% | 110% | 323% | 55.8% | 115% | 130% | 152%
6 | C[C@@H](N)c1ccc(C(=O)Nc2ccnc3[nH]ccc23)cc1 + Cn1cnc2c(F)c(Nc3ccc(Br)cc3Cl)c(C(=O)NOCCO)cc21 [selumetinib] (first compound 0.4 µM, partner dose 0.015 µM) | 245% | 83.9% | 171% | 232% | 111% | 105% | 91.5% | 101% | 98%
7 | Cn1sc(=O)n(Cc2ccccc2)c1=O + Clc1ccc(Nc2nnc(Cc3ccncc3)c3ccccc23)cc1 [vatalanib] (first compound 0.4 µM, partner dose 2 µM) | 97.6% | 104% | 53% | 160% | 141% | 69% | 270% | 172% | 121%
8 | COc1ccc(C2=N[C@@H](c3ccc(Cl)cc3)[C@@H](c3ccc(Cl)cc3)N2C(=O)N2CCNC(=O)C2)c(OC(C)C)c1 [Nutlin-3] + CC(=O)O[C@@]12CO[C@@H]1C[C@H](O)[C@@]1(C)C(=O)[C@H](O)C3=C(C)[C@@H](OC(=O)[C@H](O)[C@@H](NC(=O)OC(C)(C)C)c4ccccc4)C[C@@](O)([C@@H](OC(=O)c4ccccc4)[C@H]21)C3(C)C [Docetaxel] (first compound 0.1 µM, partner dose 0.0001 µM) | 173% | 138% | 1780% | 1920% | 332% | 1430% | 162% | 413% | 162%
9 | NC(=O)c1ccc(N(C(N)=O)c2c(F)cccc2F)nc1-c1ccc(F)cc1F + Nc1cccc2c1CN(C1CCC(=O)NC1=O)C2=O [lenalidomide] (first compound 0.4 µM, partner dose 1 µM) | 98.4% | 177% | 118% | 62.7% | 85.2% | 33.7% | 86.3% | 38.9% | 81.5%
10 | CS(=O)(=O)c1ccc(C(=O)Nc2ccc(Cl)c(-c3ccccn3)c2)c(Cl)c1 [vismodegib] + O=C(O)[C@@H]1[O][Sb](=[O])([O][Sb]2(=[O])[O][C@H]([C@H](O)CO)[C@H](O)[C@H](C(=O)O)[O]2)[O][C@H]([C@H](O)CO)[C@@H]1O [stibogluconate] (first compound 1 µM, partner dose 2 µM) | 64.2% | 81.3% | 118% | 91.2% | 79.3% | 152% | 94.6% | 60.9% | 112%
11 | C[C@@H](N)c1ccc(C(=O)Nc2ccnc3[nH]ccc23)cc1 + C=CCNC1=C2C[C@@H](C)C[C@H](OC)[C@H](O)[C@@H](C)/C=C(\C)[C@H](OC(N)=O)[C@@H](OC)/C=C\C=C(/C)C(=O)NC(=CC1=O)C2=O [Tanespimycin] (first compound 0.4 µM, partner dose 0.002 µM) | 100% | 94.7% | 173% | 187% | 92% | 87.3% | 134% | 83% | 92.4%
12 | CC(=O)O[C@@]12CO[C@@H]1C[C@H](O)[C@@]1(C)C(=O)[C@H](O)C3=C(C)[C@@H](OC(=O)[C@H](O)[C@@H](NC(=O)OC(C)(C)C)c4ccccc4)C[C@@](O)([C@@H](OC(=O)c4ccccc4)[C@H]21)C3(C)C [Docetaxel] + Nc1ncn([C@H]2C[C@H](O)[C@@H](CO)O2)c(=O)n1 [decitabine] (first compound 0.0001 µM, partner dose 0.1 µM) | 275% | 81.2% | 3330% | 1240% | 167% | 259% | 168% | 148% | 228%
13 | CCCCCCCCc1ccc(CCC(N)(CO)CO)cc1 [fingolimod] + C[C@@H](Oc1cc(-c2cnn(C3CCNCC3)c2)cnc1N)c1c(Cl)ccc(F)c1Cl [Crizotinib] (first compound 2 µM, partner dose 0.2 µM) | 753% | 157% | 107% | 239% | 75% | 77.3% | 90.8% | 86.7% | 165%
14 | C[C@@H](N)c1ccc(C(=O)Nc2ccnc3[nH]ccc23)cc1 + CS(=O)(=O)CCNCc1ccc(-c2ccc3ncnc(Nc4ccc(OCc5cccc(F)c5)c(Cl)c4)c3c2)o1 [lapatinib] (first compound 0.4 µM, partner dose 0.8 µM) | 80.6% | 225% | 55.6% | 126% | 80.7% | 322% | 81.3% | 210% | 142%
15 | CCCCCCCCc1ccc(CCC(N)(CO)CO)cc1 [fingolimod] + Clc1ccc(Nc2nnc(Cc3ccncc3)c3ccccc23)cc1 [vatalanib] (first compound 2 µM, partner dose 2 µM) | 294% | 158% | 60% | 500% | 76.9% | 51% | 137% | 70.9% | 86.1%
16 | Cn1cnc2c(F)c(Nc3ccc(Br)cc3Cl)c(C(=O)NOCCO)cc21 [selumetinib] + Cn1c(Nc2ccc(C(F)(F)F)cc2)nc2cc(Oc3ccnc(-c4ncc(C(F)(F)F)[nH]4)c3)ccc21 [CHIR265] (first compound 0.015 µM, partner dose 0.08 µM) | 347% | 163% | 90.5% | 508% | 99.2% | 248% | 103% | 47.5% | 241%
17 | CC1(C)CCC(c2ccc(Cl)cc2)=C(CN2CCN(c3ccc(C(=O)NS(=O)(=O)c4ccc(N[C@H](CCN5CCOCC5)CSc5ccccc5)c(S(=O)(=O)C(F)(F)F)c4)cc3)CC2)C1 + Cc1ccc(Nc2nccc(N(C)c3ccc4c(C)n(C)nc4c3)n2)cc1S(N)(=O)=O [Pazopanib] (first compound 0.4 µM, partner dose 0.4 µM) | 82% | 378% | 157% | 525% | 139% | 384% | 1130% | 596% | 244%

Shown tab-delimited: entries from further up.
Row	Compound	cleaved PARP positive nuclei fraction (501Mel)	cleaved PARP positive nuclei fraction (A101D)	cleaved PARP positive nuclei fraction (A2058)	cleaved PARP positive nuclei fraction (A375)	cleaved PARP positive nuclei fraction (C32)	cleaved PARP positive nuclei fraction (CBRC008)	cleaved PARP positive nuclei fraction (CBRC014)	cleaved PARP positive nuclei fraction (CBRC016)	cleaved PARP positive nuclei fraction (CBRC017)
12	CC(=O)O[C@@]12CO[C@@H]1C[C@H](O)[C@@]1(C)C(=O)[C@H](O)C3=C(C)[C@@H](OC(=O)[C@H](O)[C@@H](NC(=O)OC(C)(C)C)c4ccccc4)C[C@@](O)([C@@H](OC(=O)c4ccccc4)[C@H]21)C3(C)C [Docetaxel] + Nc1ncn([C@H]2C[C@H](O)[C@@H](CO)O2)c(=O)n1 [decitabine] (first compound 0.0001 µM, partner dose 0.1 µM)	275%	81.2%	3330%	1240%	167%	259%	168%	148%	228%
16	Cn1cnc2c(F)c(Nc3ccc(Br)cc3Cl)c(C(=O)NOCCO)cc21 [selumetinib] + Cn1c(Nc2ccc(C(F)(F)F)cc2)nc2cc(Oc3ccnc(-c4ncc(C(F)(F)F)[nH]4)c3)ccc21 [CHIR265] (first compound 0.015 µM, partner dose 0.08 µM)	347%	163%	90.5%	508%	99.2%	248%	103%	47.5%	241%
